Measured data: PubChem BioAssay AID1259254 (NCATS, 2017)

Purpose: 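Finding genes that stop cells copying their DNA twice in one cycle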 (primary screen)
System: human HCT116 colorectal cancer cells
Reagent: single siRNA against human genes
Time to read-out: 3 days
Detection: 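Nuclei stained with Hoechst and imaged; cell-cycle phase assigned by DNA content; G2 share scaled per plate, non-targeting siRNA 0%, GMNN siRNA 100%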
Scale: G2 robust z-score: higher = more G2 cells, more excess DNA replication
Active means: 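An siRNA counts as active if its G2 robust z-score lies at least 5 MADs above the screen median; here such calls match roughly 38% of GMNN control or more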
Here is one part, drawn at random, of about 59,000 deposited reagents. Of all reagents, about 1,550 (2.6%) were called active. 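G2 share is only a proxy for re-replication; each gene was hit by three separate siRNAs, and active genes were retested.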 A number with no mark means an inactive call. The numbers tell different reagents against one gene apart. Further read-outs or replicates are left out here. Not stated in the record: the amount of reagent.

RPS28 #1: G2 robust z-score = 3.81
RPS28 #2: G2 robust z-score = 4.53
RPS28 #3: G2 robust z-score = 3.77
HIGD1B #1: G2 robust z-score = -0.678
HIGD1B #2: G2 robust z-score = -1.02
HIGD1B #3: G2 robust z-score = -0.0175
TMEM39B #1: G2 robust z-score = 0.679
TMEM39B #2: G2 robust z-score = 0.988
TMEM39B #3: G2 robust z-score = -0.303

A stretch of the results above, for reference:
HIGD1B #1: G2 robust z-score = -0.678
HIGD1B #2: G2 robust z-score = -1.02
HIGD1B #3: G2 robust z-score = -0.0175
TMEM39B #1: G2 robust z-score = 0.679

Next entries follow.
QARS1 #1: G2 robust z-score = 0.631
QARS1 #2: G2 robust z-score = 0.321
QARS1 #3: G2 robust z-score = 2.34
ARPC3 #1: G2 robust z-score = 0.119
ARPC3 #2: G2 robust z-score = 0.628
ARPC3 #3: G2 robust z-score = 2.46
VHL #1: G2 robust z-score = -0.315
VHL #2: G2 robust z-score = 3.79
VHL #3: G2 robust z-score = 0.752
WDR6 #1: G2 robust z-score = -0.857
WDR6 #2: G2 robust z-score = -0.78
WDR6 #3: G2 robust z-score = -0.174
ANAPC11 #1: G2 robust z-score = -0.557
ANAPC11 #2: G2 robust z-score = -0.261
ANAPC11 #3: G2 robust z-score = 2.4
